# Laboratory results taken from PubChem BioAssay AID493014 (National Center for Advancing Translational Sciences (NCATS), 2011).
# The campaign covered roughly 340,000 compounds. About 170 (0.05%) were called active. Inconclusive results, whose numbers are uncertain, are shown with a selection of clear calls. Calls come from the whole dose curve; as a rule, active = well fitted inhibition curve with a large enough effect in the signal ratio, with a control signal flat (not every such curve was filed as active); inconclusive = small, poorly fitted or top-dose-only effect, or effect the other way, or a change in a side signal; inactive = flat fitted curve, though single readings scatter; the % refers to the signal ratio. Potencies of inconclusive entries are doubtful fits and often do not repeat.
# Test: qHTS Assay to Find Inhibitors of Chronic Active B-Cell Receptor Signaling;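 for activity change, negative = inhibition: plate controls were basal doxycycline-induced cells for no effect and cells given 10 µM MG132 for full effect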
# Details: ABC-DLBCL IkBa-CBG/CBR reporter, luminescence ratio (green luciferase fused to IkBa over red control in TMD8 lymphoma cells), 4 h; activity change, negative = inhibition: at 46.1 µM (top of the series)
# Method in brief: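 Compounds up to 46 uM were incubated four hours with TMD8 cells whose green CBG68 luciferase is fused to IkappaBalpha; red CBR luminescence normalised the signal, and concentration-effect curves were fitted to fusion, red and ratio data.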
# Potency is the fitted concentration of half-maximal effect.
SMILES,"activity change, negative = inhibition",Potency
OCC1(Cc2ccc(F)cc2)CCCN(CCc2ccccc2)C1 (stereo not drawn),inconclusive: 6.68%,
Cc1cc(C(=O)COC(=O)CCC(=O)c2ccc3c(c2)OCCO3)c(C)n1Cc1ccco1,inconclusive: 0.191%,
O=C(Nc1ccc2c(c1)CCC2)c1ccccc1,,"inconclusive: 29.1 µM [falling, single point]"
CCOC(=O)c1c(/N=C/N(C)C)sc(/C=N/Nc2ccccc2)c1-c1ccccc1Cl,inactive: 2.13%,
CCOC(=O)c1c(C=O)c(C)n(Cc2ccccc2Cl)c1C,,"inconclusive: 32.6 µM [falling, single point]"
O=c1cc(CNc2ccc(Br)cc2)nc2sccn12,inconclusive: 7.51%,
COc1cccc(N2C(=O)CC(N3CCN(C(=O)c4ccco4)CC3)C2=O)c1 (stereo not drawn),inconclusive: 1.5%,
O=C(NC(=S)Nc1ccccc1)c1ccc(Br)o1,inactive: 2.8%,
COc1ccc(S(=O)(=O)N2CCOCC2)cc1NC(=O)COC(=O)C1=COCCO1,inconclusive: -29.4%,
CC(C)CNC(=S)N1CCC(NC(=O)c2ccco2)CC1,inconclusive: 5.8%,
CCCC[n+]1ccn(C2=C([O-])c3ccccc3C(=O)/C2=N\S(=O)(=O)c2ccccc2)c1,inconclusive: -5.87%,
Cc1ccccc1NC(=O)Cc1cn(C)c2ccccc12,,"inconclusive: 20.6 µM [falling, partial curve]"
O=c1c2ccccc2c(=O)n(Cc2ccccc2)n1Cc1ccccc1,inconclusive: -13.5%,
CCn1c(SCC(=O)Nc2nc(C)cs2)nnc1-c1ccncc1,inconclusive: 0.468%,
Cc1cc(=O)oc2cc(OCC(=O)Nc3ccccc3C(=O)O)ccc12,,"inconclusive: 10 µM [falling, partial curve]"
COC(=O)c1cc2occc2n1Cc1c(F)cccc1Cl,inconclusive: 2.98%,
O=C(CSc1nnnn1-c1ccccc1)NC(=O)NCc1ccco1,inconclusive: -13.6%,
Cc1cccc(C)c1NC(=O)c1sccc1SCC#N,inactive: 0.956%,
O=c1c2c(nc3cc(-c4ccc(Cl)cc4)[nH]n13)CCS2,,"inconclusive: 10.3 µM [rising, partial curve, poor fit]"
Cc1ccc(-c2c3c(=O)n(C)c(=O)n(C)c3cn2-n2cnnc2)cc1,inconclusive: -5.41%,
NNC(=O)C1CC(O)CN1S(=O)(=O)c1ccc2ccccc2c1 (stereo not drawn),inconclusive: -7.51%,
O=C(CCn1c(=S)[nH]c2ccccc2c1=O)N1CCCCC1,inconclusive: 11.4%,

# 2 compounds drawn at random from the list so far:
SMILES,"activity change, negative = inhibition",Potency
O=C(Nc1ccc2c(c1)CCC2)c1ccccc1,,"inconclusive: 29.1 µM [falling, single point]"
O=C(CCn1c(=S)[nH]c2ccccc2c1=O)N1CCCCC1,inconclusive: 11.4%,

# (continued)

SMILES,"activity change, negative = inhibition",Potency
CN(C)S(=O)(=O)c1ccc(NC(=O)CN2CCN(c3ccccn3)CC2)cc1,inconclusive: 0.641%,
CC(=O)c1ccc(NC(=S)N2c3ccccc3CC2C)cc1 (stereo not drawn),inactive: 3.01%,
COCCNC(=S)N/N=C(\C)c1ccc(OC(F)F)cc1,,"inconclusive: 25.1 µM [falling, single point]"
COc1ccc2c(c1)C(=O)C(=O)N2CC1COc2ccccc2O1 (stereo not drawn),inactive: -17.1%,
CCN(CC(=O)NCc1ccc(Cl)cc1)C(=O)COc1ccc(Cl)cc1Br,inactive: 4.88%,
Cc1ccc2cc(/C=C/C(=O)c3ccco3)c(Cl)nc2c1,inactive: 0.237%,
Cc1cccc(OCC(=O)N2CCCc3ccccc32)c1,inconclusive: 10%,
Cc1cc(N(C)C)c(C#N)c(NCc2ccccc2)n1,inconclusive: 1.18%,
CCCOc1ccc2c(CC)cc(=O)oc2c1C,inconclusive: 0.41%,
CCN1CCN(c2cc(C)c3cc(NC(=O)Cc4ccc(OC)c(OC)c4)ccc3n2)CC1,inconclusive: 2.88%,
O=C(N/N=C/c1ccc(Br)s1)c1ccccn1,,"inconclusive: 16.4 µM [falling, partial curve]"
CCOC(=O)c1sc(CS(=O)(=O)c2ccc(Cl)cc2)nc1C,inactive: -1.26%,
Cc1cc(-c2ccccc2)nc(N/N=C/c2cccnc2)n1,inconclusive: 4.72%,
COc1ccc2nc(-c3ccccc3)cc(C(=O)N3CCC3)c2c1,inconclusive: -1.64%,
O=C(/C=C/c1ccc(F)cc1)N1CCN(c2ccccn2)CC1,inconclusive: 9.1%,
CCS/C(N)=N/N=C/c1cc(C)ccc1O,,"inconclusive: 23.1 µM [cytotoxic, single point]"
COc1cccc(C(=O)Nc2c(C(N)=O)oc3ccccc23)c1,inconclusive: -5.25%,
COc1cc(/C(C)=N/NC(=O)CSc2nc3ccccc3[nH]2)ccc1O,,"inconclusive: 20 µM [falling, partial curve, poor fit]"
O=C(Nc1ccccc1)c1cccc(N2C(=O)C3C4C=CC(C4)C3C2=O)c1 (stereo not drawn),inconclusive: -14.5%,
CCc1cc(C(=O)Nc2ccc(OC)nc2)sc1C,inconclusive: 2.19%,
COc1ccccc1NC(=O)C1=C(C)Nc2nnnn2C1c1cccc(Br)c1 (stereo not drawn),,"inconclusive: 25.1 µM [falling, single point]"
